Experimental findings from PMC4471195 are described below.

The chains behind the UniProt entries cited, without tags or fusion partners. Residues count along the entry.
UniProt P55854, residues 1-92: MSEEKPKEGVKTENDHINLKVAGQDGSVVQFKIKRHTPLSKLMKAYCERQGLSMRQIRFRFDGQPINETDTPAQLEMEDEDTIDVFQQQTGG
UniProt Q9Y5K6: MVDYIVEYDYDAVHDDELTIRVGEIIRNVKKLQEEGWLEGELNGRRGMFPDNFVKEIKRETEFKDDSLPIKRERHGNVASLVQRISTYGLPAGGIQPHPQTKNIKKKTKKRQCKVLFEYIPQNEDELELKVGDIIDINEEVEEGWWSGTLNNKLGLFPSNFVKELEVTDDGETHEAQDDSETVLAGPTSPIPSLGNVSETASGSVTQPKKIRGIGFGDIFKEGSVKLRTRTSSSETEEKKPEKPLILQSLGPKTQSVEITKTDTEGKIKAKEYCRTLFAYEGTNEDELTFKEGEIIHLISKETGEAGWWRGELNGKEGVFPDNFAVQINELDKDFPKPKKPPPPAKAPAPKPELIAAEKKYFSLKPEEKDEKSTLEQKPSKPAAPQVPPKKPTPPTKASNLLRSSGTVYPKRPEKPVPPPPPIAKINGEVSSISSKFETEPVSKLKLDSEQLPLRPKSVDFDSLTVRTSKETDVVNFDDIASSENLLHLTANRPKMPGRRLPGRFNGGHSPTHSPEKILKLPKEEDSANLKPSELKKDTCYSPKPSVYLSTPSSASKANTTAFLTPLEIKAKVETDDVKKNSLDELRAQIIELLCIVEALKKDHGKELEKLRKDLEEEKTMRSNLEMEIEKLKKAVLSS

For one assay, the target named is His-tagged SUMO-3 (UniProt P55854). The experiment in a line: pull-down; His-tagged SUMO proteins co-transfected with V5-tagged proteins in HEK 293T, 36 h; Ni-NTA beads, non-denaturing conditions; anti-V5 blot.
The next assay has as its target T1, FLAG-tagged PIAS4 (UniProt Q8N2W9).
T1 sequence: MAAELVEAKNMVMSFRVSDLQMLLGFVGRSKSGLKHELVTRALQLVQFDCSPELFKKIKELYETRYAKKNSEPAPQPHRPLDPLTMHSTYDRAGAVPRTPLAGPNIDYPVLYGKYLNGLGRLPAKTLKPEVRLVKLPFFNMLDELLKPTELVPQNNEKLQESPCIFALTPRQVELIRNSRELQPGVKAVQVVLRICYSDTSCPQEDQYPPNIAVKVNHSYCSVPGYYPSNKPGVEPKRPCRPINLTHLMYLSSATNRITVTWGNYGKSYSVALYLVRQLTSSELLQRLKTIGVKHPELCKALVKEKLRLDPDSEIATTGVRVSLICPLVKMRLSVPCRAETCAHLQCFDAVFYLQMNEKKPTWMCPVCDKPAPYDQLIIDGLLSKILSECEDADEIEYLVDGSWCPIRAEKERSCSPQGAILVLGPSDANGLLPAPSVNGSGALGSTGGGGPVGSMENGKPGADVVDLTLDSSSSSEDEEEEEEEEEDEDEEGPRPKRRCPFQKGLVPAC
The experiment in a line: co-IP; transient co-expression in HEK 293T; lysis in 20 mM Tris pH 7.5, 1% Triton X-100, 50 mM NaCl, 50 mM NaF, 15 mM Na4P2O7, 0.1 mM EDTA; FLAG M2 sepharose beads, 2 h, 4°C; Western blot. In general terms: In western blotting, separated proteins are transferred to a membrane and probed.

The target of the next assay is Flag-tagged CD2AP (UniProt Q9Y5K6). The assay is described as above.
Assay [1] addresses T2, V5-tagged PIAS4 (wheat germ cell-free system) (UniProt Q8N2W9).
T2 sequence: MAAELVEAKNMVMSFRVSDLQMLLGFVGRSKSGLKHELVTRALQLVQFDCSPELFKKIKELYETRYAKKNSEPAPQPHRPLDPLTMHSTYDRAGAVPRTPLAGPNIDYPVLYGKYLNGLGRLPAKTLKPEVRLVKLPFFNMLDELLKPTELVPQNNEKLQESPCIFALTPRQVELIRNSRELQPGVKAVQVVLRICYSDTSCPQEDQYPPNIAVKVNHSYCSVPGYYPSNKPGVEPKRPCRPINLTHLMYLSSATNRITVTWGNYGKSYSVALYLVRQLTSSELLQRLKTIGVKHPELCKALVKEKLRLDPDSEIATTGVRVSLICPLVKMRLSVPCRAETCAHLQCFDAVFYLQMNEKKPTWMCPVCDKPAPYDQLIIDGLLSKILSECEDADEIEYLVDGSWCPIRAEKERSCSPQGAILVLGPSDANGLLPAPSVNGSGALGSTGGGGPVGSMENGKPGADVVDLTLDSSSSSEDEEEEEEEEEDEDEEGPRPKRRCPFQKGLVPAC
Briefly: co-IP; proteins produced in the wheat germ cell-free system; V5-tagged proteins precipitated with V5 agarose beads; Western blot.

Results are given in words; binding and its absence hold for the method and conditions named. In cells and extracts the contact can be indirect. Some entries that bind do so weakly or less than the wild type. Where a sequence is shown, tags or fusion partners need not be part of it.

B1: V5-tagged NPHP2 (protein, UniProt Q9Y283 1-1065)
chain: MNKSENLLFAGSSLASQVHAAAVNGDKGALQRLIVGNSALKDKEDQFGRTPLMYCVLADRLDCADALLKAGADVNKTDHSQRTALHLAAQKGNYRFMKLLLTRRANWMQKDLEEMTPLHLTTRHRSPKCLALLLKFMAPGEVDTQDKNKQTALHWSAYYNNPEHVKLLIKHDSNIGIPDVEGKIPLHWAANHKDPSAVHTVRCILDAAPTESLLNWQDYEGRTPLHFAVADGNVTVVDVLTSYESCNITSYDNLFRTPLHWAALLGHAQIVHLLLERNKSGTIPSDSQGATPLHYAAQSNFAETVKVFLKHPSVKDDSDLEGRTSFMWAAGKGSDDVLRTMLSLKSDIDINMADKYGGTALHAAALSGHVSTVKLLLENNAQVDATDVMKHTPLFRACEMGHKDVIQTLIKGGARVDLVDQDGHSLLHWAALGGNADVCQILIENKINPNVQDYAGRTPLQCAAYGGYINCMAVLMENNADPNIQDKEGRTALHWSCNNGYLDAIKLLLDFAAFPNQMENNEERYTPLDYALLGERHEVIQFMLEHGALSIAAIQDIAAFKIQAVYKGYKVRKAFRDRKNLLMKHEQLRKDAAAKKREEENKRKEAEQQKGRRSPDSCRPQALPCLPSTQDVPSRQSRAPSKQPPAGNVAQGPEPRDSRGSPGGSLGGALQKEQHVSSDLQGTNSRRPNETAREHSKGQSACVHFRPNEGSDGSRHPGVPSVEKSRGETAGDERCAKGKGFVKQPSCIRVAGPDEKGEDSRRAAASLPPHDSHWKPSRRHDTEPKAKCAPQKRRTQELRGGRCSPAGSSRPGSARGEAVHAGQNPPHHRTPRNKVTQAKLTGGLYSHLPQSTEELRSGARRLETSTLSEDFQVSKETDPAPGPLSGQSVNIDLLPVELRLQIIQRERRRKELFRKKNKAAAVIQRAWRSYQLRKHLSHLRHMKQLGAGDVDRWRQESTALLLQVWRKELELKFPQTTAVSKAPKSPSKGTSGTKSTKHSVLKQIYGCSHEGKIHHPTRSVKASSVLRLNSVSNLQCIHLLENSGRSKNFSYNLQSATQPKNKTKP
On to B1, for which, in the assay with His-tagged SUMO-3, the binding result is “no binding”.

B2: V5-tagged Glis2 (protein, UniProt Q9BZE0 1-524)
chain: MHSLDEPLDLKLSITKLRAAREKRERTLGVVRPRALHRELGLVDDSPTPGSPGSPPSGFLLNSKFPEKVEGRFSAAPLVDLSLSPPSGLDSPNGSSSLSPERQGNGDLPPVPSASDFQPLRYLDGVPSSFQFFLPLGSGGALHLPASSFLTPPKDKCLSPDLPLPKQLVCRWAKCNQLFELLQDLVDHVNDYHVKPEKDAGYCCHWEGCARHGRGFNARYKMLIHIRTHTNEKPHRCPTCSKSFSRLENLKIHNRSHTGEKPYVCPYEGCNKRYSNSSDRFKHTRTHYVDKPYYCKMPGCHKRYTDPSSLRKHIKAHGHFVSHEQQELLQLRPPPKPPLPAPDGGPYVSGAQIIIPNPAALFGGPGLPGLPLPLAPGPLDLSALACGNGGGSGGGGGMGPGLPGPVLPLNLAKNPLLPSPFGAGGLGLPVVSLLAGAAGGKAEGEKGRGSVPTRALGMEGHKTPLERTESSCSRPSPDGLPLLPGTVLDLSTGVNSAASSPEALAPGWVVIPPGSVLLKPAVVN
On to B2, for which the figures for the binding entry with FLAG-tagged PIAS4, with Flag-tagged CD2AP and with His-tagged SUMO-3 were “binds”, “no binding” and “binds”, respectively.

B3: FLAG-tagged Glis2 (wheat germ cell-free system) (protein, UniProt Q9BZE0 1-524)
chain: MHSLDEPLDLKLSITKLRAAREKRERTLGVVRPRALHRELGLVDDSPTPGSPGSPPSGFLLNSKFPEKVEGRFSAAPLVDLSLSPPSGLDSPNGSSSLSPERQGNGDLPPVPSASDFQPLRYLDGVPSSFQFFLPLGSGGALHLPASSFLTPPKDKCLSPDLPLPKQLVCRWAKCNQLFELLQDLVDHVNDYHVKPEKDAGYCCHWEGCARHGRGFNARYKMLIHIRTHTNEKPHRCPTCSKSFSRLENLKIHNRSHTGEKPYVCPYEGCNKRYSNSSDRFKHTRTHYVDKPYYCKMPGCHKRYTDPSSLRKHIKAHGHFVSHEQQELLQLRPPPKPPLPAPDGGPYVSGAQIIIPNPAALFGGPGLPGLPLPLAPGPLDLSALACGNGGGSGGGGGMGPGLPGPVLPLNLAKNPLLPSPFGAGGLGLPVVSLLAGAAGGKAEGEKGRGSVPTRALGMEGHKTPLERTESSCSRPSPDGLPLLPGTVLDLSTGVNSAASSPEALAPGWVVIPPGSVLLKPAVVN
Consider B3, for which, in assay [1], the binding entry was “binds”.

B4: V5-tagged Diversin (protein, UniProt Q9Y2G4 1-727)
chain: MSQQDAVAALSERLLVAAYKGQTENVVQLINKGARVAVTKHGRTPLHLAANKGHLPVVQILLKAGCDLDVQDDGDQTALHRATVVGNTEIIAALIHEGCALDRQDKDGNTALHEASWHGFSQSAKLLIKAGANVLAKNKAGNTALHLACQNSHSQSTRVLLLAGSRADLKNNAGDTCLHVAARYNHLSIIRLLLTAFCSVHEKNQAGDTALHVAAALNHKKVAKILLEAGADTTIVNNAGQTPLETARYHNNPEVALLLTKAPQVLRFSRGRSLRKKRERLKEERRAQSVPRDEVAQSKGSVSAGDTPSSEQAVARKEEAREEFLSASPEPRAKDDRRRKSRPKVSAFSDPTPPADQQPGHQKNLHAHNHPKKRNRHRCSSPPPPHEFRAYQLYTLYRGKDGKVMQAPINGCRCEPLINKLENQLEATVEEIKAELGSVQDKMNTKLGQMENKTQHQMRVLDKLMVERLSAERTECLNRLQQHSDTEKHEGEKRQISLVDELKTWCMLKIQNLEQKLSGDSRACRAKSTPSTCESSTGVDQLVVTAGPAAASDSSPPVVRPKEKALNSTATQRLQQELSSSDCTGSRLRNVKVQTALLPMNEAARSDQQAGPCVNRGTQTKKSGKSGPTRHRAQQPAASSTCGQPPPATGSEQTGPHIRDTSQALELTQYFFEAVSTQMEKWYERKIEEARSQANQKAQQDKATLKEHIKSLEEELAKLRTRVQKEN
On to B4, for which, in the assay with FLAG-tagged PIAS4, the binding entry is “no binding”.
